The values that follow are results of earlier work, collected in publication PMC11249109 (Drug Design, Development and Therapy, 2024).

A word on the IC50: it is the concentration that gives 50% inhibition.

The test system of this data set is SARS-CoV-2. The settings on record: read-out: IC50, anti-SARS-CoV-2 activity; Vero E6 cells; cited from earlier work.

With `CCC(CC)COC(=O)[C@H](C)N[P@](=O)(OC[C@H]1O[C@@](C#N)(c2ccc3c(N)ncnn23)[C@H](O)[C@@H]1O)Oc1ccccc1` [remdesivir, reference compound], the IC50 is 2710 nM.
